Here are results for one substance from article doi:10.1101/2025.09.03.674114.

Amino acid sequences for entries named in this document (tags omitted).
UniProt Q5S007: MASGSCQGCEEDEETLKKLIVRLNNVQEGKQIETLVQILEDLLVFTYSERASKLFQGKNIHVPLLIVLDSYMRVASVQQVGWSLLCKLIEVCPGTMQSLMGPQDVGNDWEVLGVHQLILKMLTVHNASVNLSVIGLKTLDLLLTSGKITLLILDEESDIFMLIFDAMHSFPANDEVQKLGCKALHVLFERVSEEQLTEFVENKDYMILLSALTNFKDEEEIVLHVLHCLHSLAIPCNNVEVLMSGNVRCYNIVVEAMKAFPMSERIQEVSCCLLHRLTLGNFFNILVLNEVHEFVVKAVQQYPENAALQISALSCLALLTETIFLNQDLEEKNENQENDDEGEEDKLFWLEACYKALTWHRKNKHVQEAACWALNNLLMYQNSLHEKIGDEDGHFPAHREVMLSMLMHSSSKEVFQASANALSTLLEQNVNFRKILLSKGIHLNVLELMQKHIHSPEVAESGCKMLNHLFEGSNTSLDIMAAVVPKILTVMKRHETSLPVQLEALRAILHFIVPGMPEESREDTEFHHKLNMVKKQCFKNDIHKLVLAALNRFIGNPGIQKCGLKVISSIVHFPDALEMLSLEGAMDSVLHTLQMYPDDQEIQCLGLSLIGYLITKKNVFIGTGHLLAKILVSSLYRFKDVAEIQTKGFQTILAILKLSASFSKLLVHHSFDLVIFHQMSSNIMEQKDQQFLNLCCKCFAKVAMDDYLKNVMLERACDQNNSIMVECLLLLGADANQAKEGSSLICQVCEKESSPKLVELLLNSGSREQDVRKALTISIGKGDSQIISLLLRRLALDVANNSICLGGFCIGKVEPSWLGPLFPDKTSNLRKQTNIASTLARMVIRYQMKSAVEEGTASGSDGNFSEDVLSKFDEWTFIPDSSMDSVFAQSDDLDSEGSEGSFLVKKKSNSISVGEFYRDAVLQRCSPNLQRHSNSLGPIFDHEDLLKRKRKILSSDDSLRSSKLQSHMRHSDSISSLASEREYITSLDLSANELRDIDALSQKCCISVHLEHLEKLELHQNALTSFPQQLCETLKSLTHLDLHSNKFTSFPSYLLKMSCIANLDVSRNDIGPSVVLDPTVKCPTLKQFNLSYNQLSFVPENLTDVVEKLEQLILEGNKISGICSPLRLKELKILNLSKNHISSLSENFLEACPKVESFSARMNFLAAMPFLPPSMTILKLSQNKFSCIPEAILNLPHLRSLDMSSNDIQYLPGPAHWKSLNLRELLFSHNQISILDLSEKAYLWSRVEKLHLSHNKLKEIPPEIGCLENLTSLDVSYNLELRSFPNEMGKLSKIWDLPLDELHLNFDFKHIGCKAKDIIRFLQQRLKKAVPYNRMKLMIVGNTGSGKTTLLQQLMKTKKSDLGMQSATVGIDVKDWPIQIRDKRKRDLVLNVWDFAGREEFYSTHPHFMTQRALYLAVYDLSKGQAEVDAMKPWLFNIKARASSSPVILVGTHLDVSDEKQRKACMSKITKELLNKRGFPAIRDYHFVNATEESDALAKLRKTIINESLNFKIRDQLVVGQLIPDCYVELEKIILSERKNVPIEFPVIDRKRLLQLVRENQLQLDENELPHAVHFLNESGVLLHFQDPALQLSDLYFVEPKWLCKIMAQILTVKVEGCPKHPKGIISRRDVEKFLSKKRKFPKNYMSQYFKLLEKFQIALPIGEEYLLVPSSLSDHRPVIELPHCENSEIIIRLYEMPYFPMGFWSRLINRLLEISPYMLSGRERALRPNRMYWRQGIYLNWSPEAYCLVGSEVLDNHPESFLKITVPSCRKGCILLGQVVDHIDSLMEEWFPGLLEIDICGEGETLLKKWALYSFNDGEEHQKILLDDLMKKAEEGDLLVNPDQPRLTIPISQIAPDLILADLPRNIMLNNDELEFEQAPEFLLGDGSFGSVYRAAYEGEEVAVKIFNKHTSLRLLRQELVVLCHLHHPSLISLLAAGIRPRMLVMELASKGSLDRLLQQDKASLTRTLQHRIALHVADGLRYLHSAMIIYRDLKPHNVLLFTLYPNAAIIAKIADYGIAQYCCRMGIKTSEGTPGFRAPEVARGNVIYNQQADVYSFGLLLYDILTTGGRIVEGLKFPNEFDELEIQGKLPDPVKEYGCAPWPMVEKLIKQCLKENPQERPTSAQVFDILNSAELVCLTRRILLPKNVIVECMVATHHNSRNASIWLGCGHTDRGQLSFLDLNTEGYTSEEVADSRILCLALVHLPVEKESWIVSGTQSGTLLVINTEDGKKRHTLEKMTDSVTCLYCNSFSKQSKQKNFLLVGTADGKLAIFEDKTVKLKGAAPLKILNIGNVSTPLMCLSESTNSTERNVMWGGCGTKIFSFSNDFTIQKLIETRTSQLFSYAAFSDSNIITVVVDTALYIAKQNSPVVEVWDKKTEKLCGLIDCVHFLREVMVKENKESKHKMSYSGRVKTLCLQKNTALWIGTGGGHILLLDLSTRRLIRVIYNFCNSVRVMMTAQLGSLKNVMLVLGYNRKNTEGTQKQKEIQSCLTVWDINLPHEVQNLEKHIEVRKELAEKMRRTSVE
UniProt Q8IY33: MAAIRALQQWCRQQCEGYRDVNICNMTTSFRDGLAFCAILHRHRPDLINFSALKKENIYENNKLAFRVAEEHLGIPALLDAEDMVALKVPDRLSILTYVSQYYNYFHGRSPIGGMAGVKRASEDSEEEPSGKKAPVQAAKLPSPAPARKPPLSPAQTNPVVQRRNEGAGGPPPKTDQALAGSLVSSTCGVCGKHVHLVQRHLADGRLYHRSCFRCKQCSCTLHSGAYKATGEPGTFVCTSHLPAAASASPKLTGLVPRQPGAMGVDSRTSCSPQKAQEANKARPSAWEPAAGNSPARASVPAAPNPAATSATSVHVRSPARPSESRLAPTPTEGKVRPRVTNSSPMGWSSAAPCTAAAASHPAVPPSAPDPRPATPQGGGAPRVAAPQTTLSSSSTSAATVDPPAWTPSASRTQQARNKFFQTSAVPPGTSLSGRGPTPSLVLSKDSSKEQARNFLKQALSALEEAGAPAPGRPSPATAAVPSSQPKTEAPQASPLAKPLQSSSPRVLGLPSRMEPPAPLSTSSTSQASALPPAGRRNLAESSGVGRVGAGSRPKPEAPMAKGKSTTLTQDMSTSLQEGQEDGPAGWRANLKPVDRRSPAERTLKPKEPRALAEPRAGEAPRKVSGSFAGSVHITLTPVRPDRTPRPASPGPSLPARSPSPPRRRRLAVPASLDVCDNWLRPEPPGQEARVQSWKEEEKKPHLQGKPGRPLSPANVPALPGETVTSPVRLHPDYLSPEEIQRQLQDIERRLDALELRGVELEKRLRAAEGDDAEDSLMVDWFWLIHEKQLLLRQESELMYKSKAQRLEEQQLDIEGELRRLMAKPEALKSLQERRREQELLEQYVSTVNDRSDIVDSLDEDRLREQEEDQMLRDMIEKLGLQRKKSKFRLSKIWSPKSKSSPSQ

Results are given in words; binding and its absence hold for the method and conditions named. Binding seen in cells or lysates may run through a third protein. Some entries that bind do so weakly or less than the wild type.

The target of the assay is 3xFLAG-turboID-LRRK2 (Leucine-rich repeat kinase 2) (UniProt Q5S007). The assay can be described thus: co-IP.

With “C-terminally HA-tagged MICALL2 (from UniProt Q8IY33 1-904)”, the binding entry was “binds”.
